The results in this text go back to the supplement of paper PMC12889115.

Each structure is given as a SMILES string. The list shows a part of the results. These are raw signals, not scaled to a control.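 First-pass screen: polymyxin B was added at a level that permeabilizes the Salmonella outer membrane while sparing the inner membrane. DMSO wells, with and without polymyxin B, defined maximum growth. Because plates differed from one another, each plate's data were ranked separately and the compounds with the lowest OD600 were carried forward as hits.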

In this assay the test system is Salmonella enterica serovar Typhimurium SL1344. Put plainly: bacterial growth OD600 after 18 h with compound and polymyxin B; higher = more bacterial growth (less inhibition). The following applies: 50 µM, Mueller-Hinton broth.

`CN1CCN(C(=O)C2CCN(c3nc(-c4ccccc4)nc4c3CCC4)CC2)CC1`: under “polymyxin B 0.75 µg/mL”, the “bacterial growth OD600” value was found to be 0.806.

Take `COc1ccc(C(=O)NC2CC2)c(OC2CCN(Cc3c(C)nn(C)c3Cl)CC2)c1`: the “bacterial growth OD600” value (polymyxin B 1 µg/mL) amounted to 1.09.

`CCc1ccc(CN2CCCC(CNS(=O)(=O)c3ccc(OC)cc3)C2)cc1` (stereo not given): under “polymyxin B 1 µg/mL”, the “bacterial growth OD600” value was 0.87.

In the case of `Cc1ccc(C(=O)N2CCC3(CC2)CC3C(=O)NCCc2ccccn2)c(C)c1` (stereo not given), the “bacterial growth OD600” value (polymyxin B 0.75 µg/mL) is 0.845.

With `Cc1noc(C)c1CCCNC(=O)c1ccc(N2CCC(CO)CC2)nc1`, for the setting “polymyxin B 1 µg/mL”, the “bacterial growth OD600” value worked out at 1.17.

With `Cc1csc(CNc2ccc(-c3nc(C4CC4)no3)cn2)n1`, the “bacterial growth OD600” value (polymyxin B 0.75 µg/mL) stood at 0.724.

As to `O=C(c1ccc(NCC2CCCCO2)nc1)N1CCC(Cn2cccn2)CC1` (stereo not given), the “bacterial growth OD600” value (polymyxin B 1 µg/mL) came out at 1.07.

On to `O=C(CCc1ccco1)N1CCC(C2CCN(Cc3cccc(F)c3F)CC2)C1` (stereo not given), for which, for the setting “polymyxin B 0.75 µg/mL”, the “bacterial growth OD600” value amounted to 0.854.

On to `CC(C)c1cc(CN2CCC(n3nccc3NC(=O)c3ccc4c(c3)OCO4)CC2)n[nH]1`, for which, for the setting “polymyxin B 1 µg/mL”, the “bacterial growth OD600” value was 0.006.

Regarding `O=C(NC1CC(=O)N(CCCc2ccccc2)C1)c1ccco1` (stereo not given), the “bacterial growth OD600” value (polymyxin B 1 µg/mL) is 0.87.

Turning to `CCCC(NC(=O)CCCn1nnnc1CN1CCC(C)CC1)c1ccccc1` (stereo not given), the “bacterial growth OD600” value (polymyxin B 0.75 µg/mL) came to 0.663.

`O=C(C1CCCCCC1)N1CCCC(Nc2ccc(F)cc2)C1` (stereo not given): the “bacterial growth OD600” value (polymyxin B 1 µg/mL) is 0.638.

Take `COc1ccccc1/C=C/[C@@H]1C[C@H]2CN(Cc3ccccc3C)C(=O)[C@]23CCCN13`: the “bacterial growth OD600” value (polymyxin B 0.75 µg/mL) turned out to be 0.49.

For the compound `CCc1cc(C(=O)N2CCCC(CCC(=O)N3CCN(Cc4ccccc4)CC3)C2)n(C)n1` (stereo not given), the “bacterial growth OD600” value (polymyxin B 1 µg/mL) is 0.896.

For the compound `CCN(CC1CCCO1)C(=O)c1csc2nc(-c3ccccc3)cn12` (stereo not given), the “bacterial growth OD600” value (polymyxin B 1 µg/mL) was determined as 0.852.

With `Cc1cc2nc(N3CCC(C(=O)NCC(C)c4ccccc4)CC3)nc(C)c2cc1C` (stereo not given), for the setting “polymyxin B 0.75 µg/mL”, the “bacterial growth OD600” value stood at 0.598.

For the compound `CCOC(=O)CN(C)C(=O)c1cccc(OC2CCN(C(=O)C3CC3)CC2)c1`, the “bacterial growth OD600” value (polymyxin B 1 µg/mL) worked out at 1.06.

Take `C=C(C)CN(CC)C(=O)CCc1nnc(-c2ccc3c(c2)OCO3)o1`: the “bacterial growth OD600” value (polymyxin B 1 µg/mL) stood at 0.933.

Take `CC(c1ccccc1)c1cc(C(=O)NCc2cnc3ccccn23)on1` (stereo not given): for the setting “polymyxin B 0.75 µg/mL”, the “bacterial growth OD600” value stood at 0.812.

For `c1ccc(Oc2ncccc2CNCc2cccn2-c2cccnc2)cc1`, the “bacterial growth OD600” value (polymyxin B 0.75 µg/mL) came out at 0.845.
